In PubChem BioAssay AID463205 (Broad Institute, 2010):
Screen size: about 2,400 compounds; about 20 (0.8%) were called active.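 Rule for the calls: active = AC50 no more than ten times the highest tested concentration, or full inhibition at every dose giving a flat fit (cut at about 30 µM in these data); inconclusive = flat fit with activity between 30% and 70%, or poor-quality invalid fit; inactive = AC50 more than ten times the top tested dose.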 Some of the results follow.

Assay: inhibitors of ADP-Glo detection reagents, dose response, artefact control for GSK-3a inhibitor project, biochemical, luminescence, cell-free, homogeneous (AID 463205);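 note: kinase-free counter-screen against the ADP-Glo detection reagents only; potency is for inhibitors that reduce the luminescence signal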
Details: 5 uM ADP

AC50, inactive:
Nc1cc(C(=O)O)c(N)c2c1C(=O)c1ccccc1C2=O > 30 µM
CCN(CC)CCOc1ccc2c(c1)C(=NNC(=O)c1ccccn1)c1cc(OCCN(CC)CC)ccc1-2 > 30 µM
CN1/C(=C/C2CC(=O)NC2=O)C(C)(C)c2ccccc21 (stereo not drawn) > 30 µM
O=C(O)COc1c(Cl)cc(/C=C2/NC(=O)NC2=O)cc1Br > 30 µM
CCn1c2ccccc2c2nnc(SCC(N)=O)nc21 > 30 µM
O=[N+]([O-])c1cc(S(=O)(=O)N2CCCC2)ccc1NCCCN1CCOCC1 > 30 µM
CC1(C)CC(=O)C(CS(=O)(=O)c2ccccc2)=C(O)C1 > 30 µM
CSc1nc(NCC(C)C)nc(N2CCOCC2)n1 > 30 µM
Nc1nonc1-n1nnc(C(=O)N/N=C/c2ccc(F)cc2)c1-c1cccs1 > 30 µM
CCn1c2ccc(C)cc2c2nc3cc(C(=O)O)ccc3nc21 > 30 µM
CCCc1[nH]nc2c1C(c1ccc(O)c(OC)c1)C(C#N)=C(N)O2 (stereo not drawn) > 30 µM
O=C(Oc1cccc([N+](=O)[O-])c1)N1CCCCC1 > 30 µM
COc1cc(/C=N/NC(=O)c2cnccn2)ccc1O > 30 µM
O=S(=O)(NCC1CCCO1)c1ccc(Cl)nc1 (stereo not drawn) > 30 µM
C/C(=N\NC(=O)c1nnn(-c2nonc2N)c1-c1ccccc1)c1cccnc1 > 30 µM
N#Cc1sc2nc3c(c(-c4cccnc4)c2c1N)CCC3 > 30 µM
NC(=O)c1cc([N+](=O)[O-])c(Cl)cc1NCc1cccnc1 > 30 µM
Fc1ccccc1/C=N/Nc1cc(N2CCCCC2)ncn1 > 30 µM
Nn1c(-c2ccc(O)cc2)nnc1-c1ccc(O)cc1 > 30 µM
C#CCOCCOCCOCCNc1nc(N2CCN(C(=O)CCCCCCCCCCNC(=O)[C@H]([C@@H](C)CC)n3cc(CCCCCN)nn3)CC2)nc(N2CCN(C(=O)CCCCCCCCCCNC(=O)[C@H](CO)n3cc(CCCCCN)nn3)CC2)n1 > 30 µM
COc1ccc(CCNc2ccc(S(=O)(=O)N3CCCC3)cc2[N+](=O)[O-])cc1 > 30 µM
Cc1cc(C(=O)c2cccs2)c(N)s1 > 30 µM
CC(=O)Oc1ccc(C(=O)c2ccccc2)c(OC(C)=O)c1 > 30 µM
CC(C)OCCCNc1nc2c([nH]1)c(=O)n(C)c(=O)n2C > 30 µM
CSc1ccc(/C=C2\NC(=O)NC2=O)cc1 > 30 µM
CN(C)c1nc2sc3c(c2c(=O)n1C)CC(C)(C)OC3 > 30 µM
CC(C)c1c(C(=O)N/N=C/c2ccncc2)nnn1-c1nonc1N > 30 µM
CCN1CCN(c2c(Cl)cccc2NC(=O)c2ccco2)CC1 > 30 µM
COc1ccc(OC)c(NC(=O)c2nnn(Cc3ccc(Br)cc3F)c2N)c1 > 30 µM
Clc1ccc(CSc2nncn2-c2ccc3c(c2)OCCO3)cc1 > 30 µM
CC(C)(C)OC(=O)N1CC=C2C(C#N)=C(N)C(C#N)(C#N)C(c3cccs3)C2C1 (stereo not drawn) > 30 µM
CN(c1ccccc1)c1nc(-n2ccnc2)nc(-n2ccnc2)n1 > 30 µM
CC(=O)Nc1ccc(NC(=O)CSc2nc3[nH]ncc3c(=O)n2-c2ccccc2)cc1 > 30 µM
CCOc1ccc2nc(NC(=O)COC)sc2c1 > 30 µM
COc1ccccc1C(=O)NNC(=O)c1cccc(Cl)c1 > 30 µM
O=c1cc(-c2ccccc2)oc2ccccc12 > 30 µM
O=C(N/N=C/c1ccc(O)c(O)c1)NC12CC3CC(CC(C3)C1)C2 > 30 µM
CC(=S)/C=C1\Sc2ccccc2N1C > 30 µM
COc1ccc(Nc2ccc(S(=O)(=O)N3CCCCC3)cc2[N+](=O)[O-])cc1OC > 30 µM
O=C(CSc1ccc2nnc(-c3ccccc3)n2n1)N1CCCc2ccccc21 > 30 µM
COCCNc1nc(C)cc(-c2cc(C(=O)NC3CCCC3)on2)n1 > 30 µM
COC1(OC)N=C(NC(=O)Nc2ccccc2)C2(C#N)C(c3ccccc3)C12C#N (stereo not drawn) > 30 µM
CCOC(=O)c1c(Cc2ccccc2)c[nH]c1C > 30 µM
N#CCCn1cc(/C=N/O)c(-c2ccccc2)n1 > 30 µM
Nc1nonc1-n1nnc(C(=O)N/N=C/c2ccc(Cl)cc2Cl)c1CN1CCOCC1 > 30 µM
CCOc1ccc2[nH]cc(S(=O)(=O)c3ccc(C)cc3)c(=O)c2c1 > 30 µM
CCOC(=O)c1sc(NC(=O)CSc2ncn[nH]2)c(C#N)c1C > 30 µM
CN(C)c1ccc(/C=N/NC(=O)c2nnn(-c3nonc3N)c2CN(C)c2ccccc2)cc1 > 30 µM
Cc1cccc(-c2nnc3n2N=C(c2ccccc2)CS3)c1 > 30 µM
O=C(O)c1[nH]c2ccc([N+](=O)[O-])cc2c1-c1ccccc1 > 30 µM
Cc1cc(C)n(CCC(=O)N=Nc2c(O)[nH]c3ccc(Br)cc23)n1 > 30 µM
CCCNC(=O)OCCC12CC3CC(CC(C3)C1)C2 > 30 µM
CCOC(=O)c1sc(NC(=O)C2CC2)cc1C > 30 µM
CCOC(=O)C1=C(C)NC(C)=C(C(=O)OCC)C1c1sccc1C > 30 µM
N#CCCn1cc(/C=N/O)c(-c2ccc(Cl)cc2)n1 > 30 µM
O=C(CSc1nnc(SCc2ccccc2Cl)s1)N/N=C/c1ccc(C(=O)O)cc1 > 30 µM
CC1=C(C#N)c2nc(N)c(C#N)c(C)c2/C1=C\c1ccc(OCC(=O)O)c(Cl)c1 > 30 µM
O=C(O)Cn1c(=O)c2c3c(sc2n(Cc2ccc(F)cc2)c1=O)CCCC3 > 30 µM

Ordered by length of the SMILES (descending): some entries from above.
AC50, inactive:
CC(C)(C)OC(=O)N1CC=C2C(C#N)=C(N)C(C#N)(C#N)C(c3cccs3)C2C1 (stereo not drawn) > 30 µM
CC(=O)Nc1ccc(NC(=O)CSc2nc3[nH]ncc3c(=O)n2-c2ccccc2)cc1 > 30 µM
O=[N+]([O-])c1cc(S(=O)(=O)N2CCCC2)ccc1NCCCN1CCOCC1 > 30 µM
CC(C)c1c(C(=O)N/N=C/c2ccncc2)nnn1-c1nonc1N > 30 µM
